Test results: PMC9278149
These are yes or no findings as the source states them, for the method shown. In cells and extracts the contact can be indirect. Some results given as binding are weak or reduced against the parent protein; the word gives no strength.

Amino acid sequences for entries named in this document (tags omitted). A change or cut given only in a name is not applied to a line headed by its entry. Chains listed by the source or under a name are the forms on record and can include a tag or linker.
UniProt P29590: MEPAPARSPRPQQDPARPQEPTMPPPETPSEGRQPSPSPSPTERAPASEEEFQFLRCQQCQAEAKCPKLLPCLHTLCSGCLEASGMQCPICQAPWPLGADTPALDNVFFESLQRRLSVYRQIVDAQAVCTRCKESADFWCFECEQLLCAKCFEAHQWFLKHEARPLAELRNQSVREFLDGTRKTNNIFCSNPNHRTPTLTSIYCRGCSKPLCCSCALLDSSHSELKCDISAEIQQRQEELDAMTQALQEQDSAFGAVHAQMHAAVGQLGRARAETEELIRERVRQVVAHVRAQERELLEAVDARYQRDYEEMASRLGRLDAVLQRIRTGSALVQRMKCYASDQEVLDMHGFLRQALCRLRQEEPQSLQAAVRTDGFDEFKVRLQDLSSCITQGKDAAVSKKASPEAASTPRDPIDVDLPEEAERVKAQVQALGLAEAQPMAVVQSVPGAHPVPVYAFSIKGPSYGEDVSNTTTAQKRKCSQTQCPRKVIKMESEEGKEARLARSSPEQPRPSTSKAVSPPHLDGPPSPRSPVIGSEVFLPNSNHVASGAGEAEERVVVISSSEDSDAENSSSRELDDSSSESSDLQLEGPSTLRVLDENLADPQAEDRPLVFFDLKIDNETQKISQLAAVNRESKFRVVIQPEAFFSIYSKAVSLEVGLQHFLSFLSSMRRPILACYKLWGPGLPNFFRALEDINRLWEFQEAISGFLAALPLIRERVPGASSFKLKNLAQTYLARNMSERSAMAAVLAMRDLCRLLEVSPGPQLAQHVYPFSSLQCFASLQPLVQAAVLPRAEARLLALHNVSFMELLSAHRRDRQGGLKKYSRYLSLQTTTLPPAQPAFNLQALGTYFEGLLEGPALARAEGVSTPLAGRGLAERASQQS
PML-IV expressed from pECFP-N1-PML (P29590, form named): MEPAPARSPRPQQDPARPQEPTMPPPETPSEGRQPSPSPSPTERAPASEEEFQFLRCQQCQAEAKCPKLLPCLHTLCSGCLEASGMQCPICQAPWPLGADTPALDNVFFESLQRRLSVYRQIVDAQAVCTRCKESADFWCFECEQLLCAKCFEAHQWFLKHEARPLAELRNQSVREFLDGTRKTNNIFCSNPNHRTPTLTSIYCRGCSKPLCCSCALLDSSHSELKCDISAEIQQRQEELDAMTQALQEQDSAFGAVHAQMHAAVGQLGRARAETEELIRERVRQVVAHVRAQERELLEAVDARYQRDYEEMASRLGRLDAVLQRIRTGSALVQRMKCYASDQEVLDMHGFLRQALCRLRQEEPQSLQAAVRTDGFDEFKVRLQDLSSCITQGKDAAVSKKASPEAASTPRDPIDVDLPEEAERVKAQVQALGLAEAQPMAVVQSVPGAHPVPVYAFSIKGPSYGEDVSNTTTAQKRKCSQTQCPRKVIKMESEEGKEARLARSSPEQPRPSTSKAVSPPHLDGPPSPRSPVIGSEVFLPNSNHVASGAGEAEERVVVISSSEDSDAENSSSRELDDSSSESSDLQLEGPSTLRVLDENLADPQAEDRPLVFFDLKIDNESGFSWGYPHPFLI

Experiments:
[1] = molecular target: endogenous promyelocytic leukemia protein (PML) (human (endogenous in Huh7)) (UniProt P29590); experiment: co-IP; endogenous proteins; Huh7 cells transfected with or without prcccDNA/Cre; 48 h; immunoprecipitation with anti-PML or control IgG; blot with anti-FoxO4 or anti-PML
[2] = molecular target: PML-IV expressed from pEYFP-N1-PML (UniProt P29590); experiment: FRET or BRET; CFP/YFP fusions cotransfected in equal amounts into Huh7 cells in 96-well plates, with or without prcccDNA/Cre; 48 h after transfection fluorescence read on a Tecan microplate reader; FRET ratio
PML-IV-Flag = PML-IV-Flag (UniProt P29590); experiment: co-IP; FoxO4-HA and PML-Flag cotransfected into Huh7 cells with or without rcccDNA; 48 h; lysis in 1% NP-40, 0.5% sodium deoxycholate, 150 mM NaCl, 20 mM Tris-HCl pH 7.4; immunoprecipitation with anti-Flag M2 agarose or control IgG, 4°C overnight; blot with anti-HA
[3] = molecular target: PML-IV expressed from pECFP-N1-PML (UniProt P29590); experiment: FRET or BRET; CFP/YFP fusions cotransfected in equal amounts into Huh7 cells in 96-well plates, with or without prcccDNA/Cre; 48 h after transfection fluorescence read on a Tecan microplate reader; FRET ratio

In the case of “endogenous FoxO4 (from UniProt P98177 1-505)”, the binding [1] is reported as “binds”.
For “FoxO4 expressed from pECFP-N1-FoxO4 (from UniProt P98177 1-505)”, the binding [2] was “binds”.
FoxO4-HA (from UniProt P98177 1-505) was tested, and the binding (PML-IV-Flag) was “binds”.
“FoxO4 expressed from pEYFP-N1-FoxO4 (from UniProt P98177 1-505)” was tested, and the binding [3] was “binds”.
